Results: US7186728B2, “Methylene-4-azasteroids” (Schering AG, priority 2001, dated 2007)
Some of these results come from one statement about several compounds together.

Test system: 5α-reductase
Test: 5α-reductase inhibition in human bone cells (hOB cells), androstendione conversion
Format: cell-based
Conditions: four different human bone cells (hOB cells), 6 hours, 0.5 μM androstendione, inhibitor 10^−11–10^−8 M

Row | Structure (SMILES) | IC50
1 | CN1C(=O)CC[C@@H]2C3CC[C@]4(C)/C(=C/Cl)CCC4C3CC[C@H]21 (some centres unmarked) [J 1879] | < 0.1 nM
2 | CN1C(=O)CC[C@]2(C)C3CC[C@]4(C)/C(=C/Cl)CCC4C3CC[C@@H]12 (some centres unmarked) [J 1924] | < 0.1 nM
